Results are given in words; binding and its absence hold for the method and conditions named. Binding seen in cells or lysates may run through a third protein.
Target: myc-NSD1 (UniProt Q96L73)
Assay: co-IP; tagged proteins co-expressed in 293FT (HEK293FT) cells, co-IP from extracts; which partner was precipitated is not told

Sequences of proteins named here, by UniProt entry; tags and fusion partners are left off. A change or cut given only in a name is not applied to a line headed by its entry. Residues count along the entry.
UniProt Q96L73: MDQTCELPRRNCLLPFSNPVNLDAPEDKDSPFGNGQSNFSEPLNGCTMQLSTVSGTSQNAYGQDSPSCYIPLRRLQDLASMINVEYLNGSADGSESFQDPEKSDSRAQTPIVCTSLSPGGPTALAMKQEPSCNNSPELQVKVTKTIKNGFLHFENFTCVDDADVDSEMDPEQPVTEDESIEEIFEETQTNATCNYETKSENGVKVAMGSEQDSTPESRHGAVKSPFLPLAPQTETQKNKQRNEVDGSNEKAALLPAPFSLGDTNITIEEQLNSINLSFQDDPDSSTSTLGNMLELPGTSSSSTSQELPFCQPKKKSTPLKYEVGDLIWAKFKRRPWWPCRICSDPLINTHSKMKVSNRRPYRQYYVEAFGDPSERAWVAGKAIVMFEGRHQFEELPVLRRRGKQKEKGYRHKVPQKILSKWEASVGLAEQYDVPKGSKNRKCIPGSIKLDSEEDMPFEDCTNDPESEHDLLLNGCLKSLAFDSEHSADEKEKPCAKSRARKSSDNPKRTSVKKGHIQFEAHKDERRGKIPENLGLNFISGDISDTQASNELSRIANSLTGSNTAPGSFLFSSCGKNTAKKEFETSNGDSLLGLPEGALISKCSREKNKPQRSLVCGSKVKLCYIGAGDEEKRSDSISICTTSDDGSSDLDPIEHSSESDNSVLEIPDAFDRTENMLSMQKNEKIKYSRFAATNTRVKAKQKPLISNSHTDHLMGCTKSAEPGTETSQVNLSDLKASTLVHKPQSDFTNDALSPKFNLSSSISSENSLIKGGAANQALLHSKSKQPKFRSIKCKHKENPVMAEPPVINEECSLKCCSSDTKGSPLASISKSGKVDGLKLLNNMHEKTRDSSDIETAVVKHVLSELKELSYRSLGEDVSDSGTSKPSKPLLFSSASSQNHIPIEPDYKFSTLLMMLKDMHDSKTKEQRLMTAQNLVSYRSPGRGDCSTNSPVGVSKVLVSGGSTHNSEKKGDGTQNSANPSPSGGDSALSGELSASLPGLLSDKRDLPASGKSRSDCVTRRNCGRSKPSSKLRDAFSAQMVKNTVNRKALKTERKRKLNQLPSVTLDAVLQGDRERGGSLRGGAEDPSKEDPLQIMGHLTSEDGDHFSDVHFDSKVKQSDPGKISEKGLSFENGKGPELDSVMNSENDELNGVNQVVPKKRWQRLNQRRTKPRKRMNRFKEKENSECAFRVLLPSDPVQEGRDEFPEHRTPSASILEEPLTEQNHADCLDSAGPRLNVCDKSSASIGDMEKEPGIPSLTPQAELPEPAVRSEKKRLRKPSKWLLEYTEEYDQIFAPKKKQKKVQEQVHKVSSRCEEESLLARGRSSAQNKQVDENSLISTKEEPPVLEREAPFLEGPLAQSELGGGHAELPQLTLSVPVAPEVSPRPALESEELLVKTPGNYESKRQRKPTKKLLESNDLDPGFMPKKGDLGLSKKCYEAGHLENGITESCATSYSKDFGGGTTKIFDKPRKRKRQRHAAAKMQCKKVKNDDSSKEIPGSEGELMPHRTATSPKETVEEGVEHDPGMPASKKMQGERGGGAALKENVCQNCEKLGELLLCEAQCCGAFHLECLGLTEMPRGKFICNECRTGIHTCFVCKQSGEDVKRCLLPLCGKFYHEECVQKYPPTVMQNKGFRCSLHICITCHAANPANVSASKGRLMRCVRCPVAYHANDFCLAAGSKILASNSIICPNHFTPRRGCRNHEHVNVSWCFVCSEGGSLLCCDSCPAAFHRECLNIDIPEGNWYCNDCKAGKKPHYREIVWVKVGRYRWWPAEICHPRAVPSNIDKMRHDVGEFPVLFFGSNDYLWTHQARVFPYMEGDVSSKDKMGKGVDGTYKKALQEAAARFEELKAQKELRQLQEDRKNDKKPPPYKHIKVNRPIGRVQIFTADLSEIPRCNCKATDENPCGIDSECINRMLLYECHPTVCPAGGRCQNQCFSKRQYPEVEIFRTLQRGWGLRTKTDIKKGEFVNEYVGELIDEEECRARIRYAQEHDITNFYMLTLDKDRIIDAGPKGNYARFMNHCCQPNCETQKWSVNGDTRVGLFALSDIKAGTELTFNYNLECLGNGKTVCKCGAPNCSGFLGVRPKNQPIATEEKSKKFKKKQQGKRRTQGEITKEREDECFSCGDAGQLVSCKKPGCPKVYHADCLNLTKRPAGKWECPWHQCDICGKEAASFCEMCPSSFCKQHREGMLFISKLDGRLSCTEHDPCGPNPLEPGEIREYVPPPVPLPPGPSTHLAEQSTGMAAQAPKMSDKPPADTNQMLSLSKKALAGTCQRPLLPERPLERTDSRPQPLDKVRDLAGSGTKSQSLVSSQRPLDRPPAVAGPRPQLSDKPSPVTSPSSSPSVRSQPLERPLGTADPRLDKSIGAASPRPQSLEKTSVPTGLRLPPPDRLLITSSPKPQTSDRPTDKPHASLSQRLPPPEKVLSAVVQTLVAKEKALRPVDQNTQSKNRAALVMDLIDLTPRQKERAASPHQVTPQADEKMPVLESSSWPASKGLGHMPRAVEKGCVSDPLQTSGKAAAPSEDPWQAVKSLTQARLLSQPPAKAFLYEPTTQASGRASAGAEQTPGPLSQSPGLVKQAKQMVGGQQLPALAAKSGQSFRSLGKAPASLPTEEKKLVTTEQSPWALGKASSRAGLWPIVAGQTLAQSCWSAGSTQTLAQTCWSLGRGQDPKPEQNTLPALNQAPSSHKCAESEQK
UniProt P26367, residues 1-302: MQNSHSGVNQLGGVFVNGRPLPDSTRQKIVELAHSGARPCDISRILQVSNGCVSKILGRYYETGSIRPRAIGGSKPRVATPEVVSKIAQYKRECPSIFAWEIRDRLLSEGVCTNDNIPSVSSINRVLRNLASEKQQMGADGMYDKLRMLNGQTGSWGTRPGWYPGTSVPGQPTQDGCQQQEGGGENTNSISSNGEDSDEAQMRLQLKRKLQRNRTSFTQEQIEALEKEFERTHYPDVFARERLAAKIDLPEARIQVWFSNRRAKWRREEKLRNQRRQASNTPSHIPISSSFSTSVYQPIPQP

Q: Which binding does the source give for “Flag-ΔC (from UniProt P26367 1-302) (domain or fragment)” here?
A: no binding

— PMC7913681
